Results deposited as PubChem BioAssay AID504784 (Drosophila RNAi Screening Center, 2011)
The deposit covers about 17,000 reagents; below is a random part of those with a known target gene and a result. 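Each column is one replicate's B-score; the combined score over replicates was not deposited, so single values may mislead.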 Not all columns of the deposit are shown.

- Screen: 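Fly genes whose silencing alters how much lipid cells keep in droplets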 (primary screen)
- Cell system: Drosophila Kc167 embryonic cells
- Knock-down reagent: long dsRNA against Drosophila genes, about 250 ng dsRNA per well
- Timing: 4 days
- Challenge: cells fed 400 µM oleic acid bound to BSA
- Measured: 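Microscope images give a droplet-to-nucleus area ratio, taken as log and converted to a screen-wide B-score; higher values mean greater lipid storage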
- Reading the numbers: droplet/nuclear area B-score: higher = more stored lipid (overstorage)

Depletion of CG13855 [DRSC14705] gave: droplet/nuclear area B-score, replicate 1 = -0.458. For euc [DRSC14492], the values are droplet/nuclear area B-score, replicate 1 = -1.06. CG8910 [DRSC07414] showed droplet/nuclear area B-score, replicate 1 = 3.74. PNPase [DRSC14304] gave droplet/nuclear area B-score, replicate 1 = 1.2. Silencing of CG11322 [DRSC02142] resulted in: droplet/nuclear area B-score, replicate 1 = 3.3. Depletion of ttk [DRSC14078] came out at: droplet/nuclear area B-score, replicate 1 = -1.54.

For ttk [DRSC17091] the deposit lists droplet/nuclear area B-score, replicate 1 = 2.64. Against CG2124 [DRSC18208] the deposit lists droplet/nuclear area B-score, replicate 1 = 0.274. CG8248 [DRSC07124] gave droplet/nuclear area B-score, replicate 1 = -0.483. With knock-down of ADD1 [DRSC07135], the screen gave droplet/nuclear area B-score, replicate 1 = 2.4. ND-B16.6 [DRSC18306] scored droplet/nuclear area B-score, replicate 1 = -0.456. For ND-B16.6 [DRSC22600], the entry reads droplet/nuclear area B-score, replicate 1 = -0.428.

After knock-down of CG31323 [DRSC14901] the results were droplet/nuclear area B-score, replicate 1 = 0.202. With knock-down of Torsin [DRSC18570], the record shows droplet/nuclear area B-score, replicate 1 = 0.311. Against CG32087 [DRSC10806] the deposit lists droplet/nuclear area B-score, replicate 1 = 0.0582. After knock-down of S-Lap2 [DRSC10628], the screen gave droplet/nuclear area B-score, replicate 1 = -0.645.
